A short description of the experiment: qHTS Assay for Lipid Storage Modulators in Drosophila S3 Cells.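 On cell number change: cells counted by Cell Tracker Red CMTPX staining in the red channel.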 The conditions noted are these: BODIPY lipid droplet fluorescence, 18-24 h; for cell number change: measured here: cell count max response, cells fed with added oleic acid. In short, it runs like this: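 Laser-scanning cytometry quantifies lipid droplet accumulation (500–530 nm total intensity; droplet/cell object ratio) in oleic acid-fed (400 uM added) Drosophila S3 cells treated with a concentration series. 20 uM Triacsin C defined 100% inhibition.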
Background: Quantitative high-throughput screening tests each substance at several concentrations.

The mark [1] stands for this setting: measured here: cell number channel AC50, cells fed with added oleic acid.
The mark [2] stands for this setting: measured here: lipid fluorescence (Fed channel) AC50, cells fed with added oleic acid.

The other results are listed elsewhere or left out. Shown are side measurements of this screen, not its main read-out; they come without a call. Compounds called inactive in the main read-out are mostly missing here. Words in brackets tell the shape of the fitted curve; partial curves, single points and poor fits give uncertain potencies.

As usually defined, the AC50 is the midpoint of the concentration-response curve, whichever way the signal moves. A higher AC50 goes with activity only at high concentration. For `COc1cc2c(C(=O)N3CCN(c4cccc(Cl)c4)CC3)cn(C)c(=O)c2cc1OC`, the cell number change was 140%. In addition, under setting [1], the AC50 was 2.59 µM [rising, full curve]. With `COc1ccc(NC(=O)c2cc(-c3cccs3)on2)cc1`, the cell number change stood at 13.8%. Take `Cn1c(=O)cc(OCCCC(=O)NCc2cccnc2)c2ccccc21`: the cell number change is -24.7%. Under setting [2], the AC50 is 7.31 µM [falling, partial curve]. For `COC(=O)c1ccc(Nc2nc(C)cc(C)n2)cc1`, the cell number change was 29%. For the compound `Cc1ccc(OCC(O)Cn2c(NCCc3ccccc3)nc3c2c(=O)[nH]c(=O)n3C)cc1` (configuration not stated), the AC50 under setting [1] is 0.13 µM [rising, full curve, poor fit]. For the compound `Cc1cccc(OCc2nnc(SCC(=O)N(C)C3CCCCC3)o2)c1`, the cell number change stood at 78.3%. Also, the AC50 under setting [1] was 8.2 µM [rising, partial curve].

As for `Nc1cc(=O)[nH]c(SCc2csc(-c3ccccc3)n2)n1`, the cell number change is -19.3%. Also, under setting [2], the AC50 is 0.651 µM [rising, single point]. With `O=C(O)/C=C/c1cnc2ccccc2c1`, the cell number change came to 12.4%. Regarding `Cn1c(NCc2ccco2)nc2c1c(=O)n(Cc1ccc(Cl)cc1)c(=O)n2C`, the cell number change was -18.7%. Further, the AC50 under setting [2] is 6.51 µM [rising, single point]. On to `CCc1nc(N2CCN(S(C)(=O)=O)CC2)c2c3c(sc2n1)CCCC3`, for which the cell number change turned out to be 28.2%. In addition, the AC50 under setting [2] was 2.91 µM [rising, single point]. For the compound `COc1ccc(-c2cc(-c3n[nH]c(=S)n3-c3cccc4ccccc34)[nH]n2)cc1`, the cell number change is -8.82%. Turning to `COc1ccc(C2c3ccc(O)cc3Oc3ncn(CCN4CCOCC4)c(=N)c32)cc1OC` (configuration not stated), the cell number change is -34.4%. Besides, the AC50 under setting [1] was 0.00517 µM [falling, full curve, poor fit]. For the compound `COc1cc(C(=O)Nc2ccc3c(c2)CCN3C(C)=O)cc(OC)c1OC`, the cell number change was 33.6%. Further, under setting [1], the AC50 was 32.6 µM [rising, single point]. With `CCOC(=O)c1nc(NCCc2ccccc2)sc1C`, the cell number change is -127%. Moreover, under setting [1], the AC50 is 29.1 µM [falling, partial curve]. Moreover, the AC50 under setting [2] is 0.731 µM [falling, single point]. For the compound `O=Cc1ccc(OCCCOc2cccc3cccnc23)cc1`, the cell number change is -25.3%. As to `O=C(O)c1cc([N+](=O)[O-])ccc1NCc1ccccn1`, the cell number change came out at 2.19%. Further, the AC50 under setting [2] is 4.11 µM [falling, single point]. Take `N#CCC(=O)N/N=C/c1coc2ccccc2c1=O`: the AC50 under setting [2] was 16.4 µM [rising, single point].

Take `CC(C)c1cc(NC(=O)CCl)on1`: the cell number change was -4.64%. Besides, the AC50 under setting [1] was 0.326 µM [falling, single point]. Also, under setting [2], the AC50 is 0.58 µM [falling, single point]. On to `CCc1ccc(OCC(O)CNC(C)(C)C)cc1` (configuration not stated), for which the cell number change came to 23.1%. Further, the AC50 under setting [1] is 0.00411 µM [rising, full curve, poor fit]. The AC50 under setting [2] was 3.26 µM [rising, single point]. Regarding `CCCCN(CCCC)Cc1cc2ccccc2c2c1COC2`, the cell number change is -10.9%. Further, under setting [1], the AC50 is 4.11 µM [rising, partial curve, poor fit].

Turning to `Cc1oc2cc3oc(=O)c(CC(=O)NCCCC(=O)O)c(C)c3cc2c1C`, the cell number change was -8.19%. Under setting [2], the AC50 is 4.11 µM [falling, single point].

As to `CCc1ccccc1NC(=O)c1cc(-c2ccc(OC)cc2)on1`, the cell number change is -20.8%. For the same compound, under setting [2], the AC50 was 2.59 µM [rising, full curve]. For the compound `COc1ccc(N(C(=O)CCC(=O)Nc2cc(C)on2)C(C(=O)NC2CCCC2)c2ccco2)cc1` (configuration not stated), the cell number change turned out to be 65.7%. Under setting [1], the AC50 is 29.1 µM [rising, single point]. `CC(=O)Nc1ccc(NC(=O)C2CC(=O)N(c3cccc(C)c3C)C2)cc1` (configuration not stated): the cell number change is 5.15%. Further, the AC50 under setting [2] is 1.3 µM [rising, partial curve]. On to `CCC(=O)NCCNc1nc2cc(C)c(C)cc2cc1C#N`, for which the cell number change is -19.5%. For the same compound, the half-maximal activity concentration (AC50) under setting [2] was 0.103 µM [falling, full curve, poor fit].

Consider `COc1cccc(-c2cc(C(=O)NC3CCCCC3)no2)c1`, for which the cell number change came out at 35.7%. Besides, the AC50 under setting [1] is 8.2 µM [rising, partial curve, poor fit].

Regarding `COc1ccccc1C(=O)NCC(=O)N/N=C/c1ccncc1`, the cell number change was found to be 24.9%. For the same compound, the AC50 under setting [2] is 4.11 µM [falling, single point].

Turning to `COc1cc(OC)c(NC(=O)CCc2nc(-c3cccs3)no2)cc1Cl`, the cell number change is -63.8%. The AC50 under setting [1] is 29.1 µM [falling, partial curve, poor fit]. Besides, the AC50 under setting [2] is 4.11 µM [rising, full curve, poor fit].

On to `Cc1cccc(N2CCN(C(=O)COc3ccc4ccc(=O)oc4c3)CC2)c1C`, for which the cell number change worked out at 6.12%. The AC50 under setting [2] is 18.4 µM [falling, single point]. On to `CCOc1cc2[nH]c(=O)n(CCCC(=O)N(C)Cc3ccccc3)c(=O)c2cc1OCC`, for which the cell number change is -60.2%. Further, under setting [1], the AC50 is 20.6 µM [falling, partial curve]. For the compound `COc1ccc(CN2CC(C(=O)N3CC(C)CC(C)C3)CC2=O)cc1` (configuration not stated), the cell number change stood at 4.45%. For the compound `Cc1ccc(C(=O)N/N=C(\CC(C)C)c2ccccc2)cc1`, the cell number change was -3.45%. Moreover, the AC50 under setting [2] is 6.51 µM [rising, partial curve, poor fit]. As for `O=C(NCCc1ccco1)C(=O)NCC1OCCCN1S(=O)(=O)c1ccc(Cl)cc1` (configuration not stated), under setting [2], the AC50 was 0.082 µM [rising, full curve, poor fit]. On to `COc1ccc(-n2c(SCC(=O)Nc3ccccc3)nc3c(c2=O)SCC3)cc1`, for which the AC50 by setting is: under setting [1], 0.651 µM [rising, single point]; under setting [2], 0.731 µM [rising, full curve].

For `COc1ccc(C(=O)NCC(c2ccco2)N2CCc3ccccc3C2)cc1` (configuration not stated), the cell number change amounted to 89.9%. The AC50 under setting [1] was 18.4 µM [rising, partial curve]. In the case of `Cc1ccc(Oc2ccc(OCC(=O)NC3CCS(=O)(=O)C3)cc2)cc1` (configuration not stated), the cell number change is -26.7%. In addition, under setting [2], the AC50 is 29.1 µM [falling, single point]. With `O=C(Nc1ccccc1C(=O)Nc1ccc(Br)cn1)c1ccccc1Cl`, the cell number change is -15.9%. Moreover, the AC50 under setting [2] is 14.6 µM [falling, single point]. Consider `Cc1ccc(NC(=O)c2ccc(COc3ccccc3)o2)nc1`, for which the cell number change came out at 24.6%. Also, the AC50 under setting [1] is 0.731 µM [rising, full curve, poor fit]. Turning to `Cc1ccc2[nH]c(=O)c(CN(CCO)Cc3nnnn3CCc3ccccc3)cc2c1`, the cell number change amounted to 37.5%. Moreover, the AC50 under setting [1] is 18.4 µM [rising, single point]. Further, the AC50 under setting [2] is 29.1 µM [rising, single point]. With `COc1cc(-n2c(=O)c3ccccc3n(CC(=O)c3ccccc3)c2=O)cc(OC)c1OC`, the cell number change was -24.7%. Also, the AC50 under setting [1] was 3.66 µM [falling, full curve, poor fit]. The AC50 under setting [2] was 2.91 µM [falling, full curve, poor fit].

The record behind these values is PubChem BioAssay AID2685 (National Center for Advancing Translational Sciences (NCATS), 2010).
